Laboratory results from patent US20130011825A1, “METHODS AND SYSTEMS FOR REDUCING DNA FRAGMENTATION IN A PROCESSED SPERM SAMPLE” (INGURAN, LLC, priority 2010, published 2013).

Tested on: sperm
Assay: Flow cytometer sex sorting resolution with quenching dye
Parameters: species or system bull

Structure (SMILES): O=S(=O)([O-])c1ccc(N=Nc2c(O)ccc3cc(S(=O)(=O)[O-])ccc23)cc1.[Na+].[Na+] [yellow 6 food dye]
- resolution in flow cytometry for sperm sorting (as quenching dye with Hoechst 33342): improves the resolution
- quenching dye concentration to which it can be increased while maintaining good resolution (sperm stained with Hoechst 33342, flow cytometer): at least 400%
